Data published in the supplement of paper PMC10849652.
The list shows a part of the results.

Protein sequences, listed by entry. Tags and fused reporters are not part of them. Lines headed by an entry give the natural chain unless they say otherwise; changes in a name come on top.
UniProt P50552: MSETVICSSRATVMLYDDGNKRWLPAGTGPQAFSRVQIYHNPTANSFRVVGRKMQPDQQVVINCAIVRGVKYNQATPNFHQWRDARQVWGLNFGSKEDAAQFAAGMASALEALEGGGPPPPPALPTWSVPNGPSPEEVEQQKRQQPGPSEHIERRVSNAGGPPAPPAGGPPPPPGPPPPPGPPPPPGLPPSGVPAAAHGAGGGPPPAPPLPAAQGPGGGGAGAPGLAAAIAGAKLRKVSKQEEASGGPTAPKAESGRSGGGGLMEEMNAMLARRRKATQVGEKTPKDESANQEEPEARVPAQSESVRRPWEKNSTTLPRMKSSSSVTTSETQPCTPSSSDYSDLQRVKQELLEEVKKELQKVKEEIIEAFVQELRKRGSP
UniProt Q9BZI7: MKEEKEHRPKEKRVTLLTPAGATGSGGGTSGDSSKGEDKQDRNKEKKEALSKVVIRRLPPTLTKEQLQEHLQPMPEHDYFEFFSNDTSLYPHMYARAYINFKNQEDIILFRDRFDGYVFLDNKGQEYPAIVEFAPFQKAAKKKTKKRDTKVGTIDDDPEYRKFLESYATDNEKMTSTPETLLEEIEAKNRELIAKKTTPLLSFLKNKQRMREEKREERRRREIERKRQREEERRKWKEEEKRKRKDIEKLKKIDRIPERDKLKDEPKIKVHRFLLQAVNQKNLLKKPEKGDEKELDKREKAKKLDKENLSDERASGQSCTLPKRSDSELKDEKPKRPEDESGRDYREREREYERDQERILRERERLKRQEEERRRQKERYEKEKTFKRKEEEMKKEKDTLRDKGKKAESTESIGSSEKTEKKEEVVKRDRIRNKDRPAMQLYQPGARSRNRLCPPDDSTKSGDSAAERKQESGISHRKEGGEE
UniProt Q9UDW1: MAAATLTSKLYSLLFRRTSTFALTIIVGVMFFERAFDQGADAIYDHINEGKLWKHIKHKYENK
UniProt P26640: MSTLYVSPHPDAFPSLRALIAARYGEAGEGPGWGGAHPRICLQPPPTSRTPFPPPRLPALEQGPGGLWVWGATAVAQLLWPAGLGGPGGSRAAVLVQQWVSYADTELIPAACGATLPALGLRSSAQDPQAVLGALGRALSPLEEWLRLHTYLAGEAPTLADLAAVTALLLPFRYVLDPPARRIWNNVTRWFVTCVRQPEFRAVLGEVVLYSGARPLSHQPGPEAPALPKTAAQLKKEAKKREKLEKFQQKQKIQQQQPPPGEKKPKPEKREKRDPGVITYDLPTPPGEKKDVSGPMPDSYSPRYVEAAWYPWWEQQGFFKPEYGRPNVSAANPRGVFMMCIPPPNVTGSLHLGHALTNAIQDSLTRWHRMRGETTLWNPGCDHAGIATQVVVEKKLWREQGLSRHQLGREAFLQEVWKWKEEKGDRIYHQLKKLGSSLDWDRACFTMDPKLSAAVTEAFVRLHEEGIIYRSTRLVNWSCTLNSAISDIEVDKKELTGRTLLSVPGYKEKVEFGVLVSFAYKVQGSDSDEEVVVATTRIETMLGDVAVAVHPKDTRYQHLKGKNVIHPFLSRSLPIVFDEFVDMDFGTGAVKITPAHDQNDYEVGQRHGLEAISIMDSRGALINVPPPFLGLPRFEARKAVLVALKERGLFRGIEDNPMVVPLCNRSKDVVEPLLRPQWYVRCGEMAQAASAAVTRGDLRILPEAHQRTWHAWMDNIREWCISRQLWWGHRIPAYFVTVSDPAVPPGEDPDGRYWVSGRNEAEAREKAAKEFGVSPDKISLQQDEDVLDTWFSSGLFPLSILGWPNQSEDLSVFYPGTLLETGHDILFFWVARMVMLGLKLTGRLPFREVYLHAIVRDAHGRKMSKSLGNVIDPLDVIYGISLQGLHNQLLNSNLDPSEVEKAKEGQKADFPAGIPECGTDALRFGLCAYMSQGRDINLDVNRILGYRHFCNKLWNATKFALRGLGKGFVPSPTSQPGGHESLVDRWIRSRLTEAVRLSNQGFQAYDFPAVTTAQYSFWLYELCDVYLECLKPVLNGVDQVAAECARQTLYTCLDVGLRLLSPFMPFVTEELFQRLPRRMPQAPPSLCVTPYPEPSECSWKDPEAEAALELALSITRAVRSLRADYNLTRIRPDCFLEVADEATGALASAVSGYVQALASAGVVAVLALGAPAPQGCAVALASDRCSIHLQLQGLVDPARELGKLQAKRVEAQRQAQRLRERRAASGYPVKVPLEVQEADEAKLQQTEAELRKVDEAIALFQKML
UniProt P14927: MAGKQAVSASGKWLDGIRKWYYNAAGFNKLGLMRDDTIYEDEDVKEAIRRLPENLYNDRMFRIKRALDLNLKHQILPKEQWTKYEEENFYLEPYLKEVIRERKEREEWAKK
UniProt Q16739: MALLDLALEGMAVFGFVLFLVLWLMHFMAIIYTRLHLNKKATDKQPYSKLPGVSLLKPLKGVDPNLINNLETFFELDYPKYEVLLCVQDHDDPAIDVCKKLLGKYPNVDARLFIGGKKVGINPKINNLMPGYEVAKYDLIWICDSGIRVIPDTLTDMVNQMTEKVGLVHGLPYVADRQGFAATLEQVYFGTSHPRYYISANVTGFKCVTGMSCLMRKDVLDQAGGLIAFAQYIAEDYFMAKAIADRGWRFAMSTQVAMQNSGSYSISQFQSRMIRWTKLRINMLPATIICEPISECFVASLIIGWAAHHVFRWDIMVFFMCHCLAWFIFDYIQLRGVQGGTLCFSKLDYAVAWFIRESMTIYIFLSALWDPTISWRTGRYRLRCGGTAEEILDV
UniProt Q8NFA0: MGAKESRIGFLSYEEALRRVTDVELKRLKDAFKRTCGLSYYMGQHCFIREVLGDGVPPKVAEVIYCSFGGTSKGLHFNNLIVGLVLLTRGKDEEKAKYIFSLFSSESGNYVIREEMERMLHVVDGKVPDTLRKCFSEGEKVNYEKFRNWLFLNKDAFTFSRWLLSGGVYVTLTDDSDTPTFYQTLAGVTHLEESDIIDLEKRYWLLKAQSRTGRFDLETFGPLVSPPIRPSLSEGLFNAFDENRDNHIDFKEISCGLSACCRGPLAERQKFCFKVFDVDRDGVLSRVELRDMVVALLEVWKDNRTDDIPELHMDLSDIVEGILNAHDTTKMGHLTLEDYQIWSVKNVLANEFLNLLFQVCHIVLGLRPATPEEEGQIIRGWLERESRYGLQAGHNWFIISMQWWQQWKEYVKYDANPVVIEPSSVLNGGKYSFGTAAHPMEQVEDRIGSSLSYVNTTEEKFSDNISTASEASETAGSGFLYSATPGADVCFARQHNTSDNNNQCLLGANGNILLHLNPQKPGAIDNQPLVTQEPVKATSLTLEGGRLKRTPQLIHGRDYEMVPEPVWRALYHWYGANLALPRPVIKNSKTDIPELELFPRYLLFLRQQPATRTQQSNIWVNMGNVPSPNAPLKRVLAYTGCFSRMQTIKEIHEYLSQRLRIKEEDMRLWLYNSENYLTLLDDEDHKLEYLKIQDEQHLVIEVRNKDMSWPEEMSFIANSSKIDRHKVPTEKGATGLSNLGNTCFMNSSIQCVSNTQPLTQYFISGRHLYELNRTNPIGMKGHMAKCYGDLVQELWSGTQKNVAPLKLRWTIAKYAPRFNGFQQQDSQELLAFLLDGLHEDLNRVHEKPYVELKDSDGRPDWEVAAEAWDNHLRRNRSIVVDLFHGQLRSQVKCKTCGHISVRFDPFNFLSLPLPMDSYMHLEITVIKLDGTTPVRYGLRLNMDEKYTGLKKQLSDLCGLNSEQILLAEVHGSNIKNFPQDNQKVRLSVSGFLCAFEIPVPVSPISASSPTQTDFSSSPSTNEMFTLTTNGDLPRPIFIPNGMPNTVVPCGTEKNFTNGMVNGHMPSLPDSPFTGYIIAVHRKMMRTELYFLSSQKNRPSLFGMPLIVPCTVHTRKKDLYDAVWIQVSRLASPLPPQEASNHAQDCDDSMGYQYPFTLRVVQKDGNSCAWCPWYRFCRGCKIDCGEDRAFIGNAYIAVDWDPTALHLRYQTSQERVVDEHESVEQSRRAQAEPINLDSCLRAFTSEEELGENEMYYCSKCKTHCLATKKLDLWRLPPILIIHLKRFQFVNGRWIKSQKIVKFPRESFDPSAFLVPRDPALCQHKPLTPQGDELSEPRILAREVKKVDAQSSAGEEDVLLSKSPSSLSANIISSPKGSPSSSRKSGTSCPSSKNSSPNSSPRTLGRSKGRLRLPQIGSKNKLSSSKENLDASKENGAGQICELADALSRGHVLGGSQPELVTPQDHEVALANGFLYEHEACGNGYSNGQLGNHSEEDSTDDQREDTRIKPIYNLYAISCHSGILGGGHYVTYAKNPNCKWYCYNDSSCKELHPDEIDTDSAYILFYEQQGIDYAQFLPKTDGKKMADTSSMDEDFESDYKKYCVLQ
UniProt Q9NYU1: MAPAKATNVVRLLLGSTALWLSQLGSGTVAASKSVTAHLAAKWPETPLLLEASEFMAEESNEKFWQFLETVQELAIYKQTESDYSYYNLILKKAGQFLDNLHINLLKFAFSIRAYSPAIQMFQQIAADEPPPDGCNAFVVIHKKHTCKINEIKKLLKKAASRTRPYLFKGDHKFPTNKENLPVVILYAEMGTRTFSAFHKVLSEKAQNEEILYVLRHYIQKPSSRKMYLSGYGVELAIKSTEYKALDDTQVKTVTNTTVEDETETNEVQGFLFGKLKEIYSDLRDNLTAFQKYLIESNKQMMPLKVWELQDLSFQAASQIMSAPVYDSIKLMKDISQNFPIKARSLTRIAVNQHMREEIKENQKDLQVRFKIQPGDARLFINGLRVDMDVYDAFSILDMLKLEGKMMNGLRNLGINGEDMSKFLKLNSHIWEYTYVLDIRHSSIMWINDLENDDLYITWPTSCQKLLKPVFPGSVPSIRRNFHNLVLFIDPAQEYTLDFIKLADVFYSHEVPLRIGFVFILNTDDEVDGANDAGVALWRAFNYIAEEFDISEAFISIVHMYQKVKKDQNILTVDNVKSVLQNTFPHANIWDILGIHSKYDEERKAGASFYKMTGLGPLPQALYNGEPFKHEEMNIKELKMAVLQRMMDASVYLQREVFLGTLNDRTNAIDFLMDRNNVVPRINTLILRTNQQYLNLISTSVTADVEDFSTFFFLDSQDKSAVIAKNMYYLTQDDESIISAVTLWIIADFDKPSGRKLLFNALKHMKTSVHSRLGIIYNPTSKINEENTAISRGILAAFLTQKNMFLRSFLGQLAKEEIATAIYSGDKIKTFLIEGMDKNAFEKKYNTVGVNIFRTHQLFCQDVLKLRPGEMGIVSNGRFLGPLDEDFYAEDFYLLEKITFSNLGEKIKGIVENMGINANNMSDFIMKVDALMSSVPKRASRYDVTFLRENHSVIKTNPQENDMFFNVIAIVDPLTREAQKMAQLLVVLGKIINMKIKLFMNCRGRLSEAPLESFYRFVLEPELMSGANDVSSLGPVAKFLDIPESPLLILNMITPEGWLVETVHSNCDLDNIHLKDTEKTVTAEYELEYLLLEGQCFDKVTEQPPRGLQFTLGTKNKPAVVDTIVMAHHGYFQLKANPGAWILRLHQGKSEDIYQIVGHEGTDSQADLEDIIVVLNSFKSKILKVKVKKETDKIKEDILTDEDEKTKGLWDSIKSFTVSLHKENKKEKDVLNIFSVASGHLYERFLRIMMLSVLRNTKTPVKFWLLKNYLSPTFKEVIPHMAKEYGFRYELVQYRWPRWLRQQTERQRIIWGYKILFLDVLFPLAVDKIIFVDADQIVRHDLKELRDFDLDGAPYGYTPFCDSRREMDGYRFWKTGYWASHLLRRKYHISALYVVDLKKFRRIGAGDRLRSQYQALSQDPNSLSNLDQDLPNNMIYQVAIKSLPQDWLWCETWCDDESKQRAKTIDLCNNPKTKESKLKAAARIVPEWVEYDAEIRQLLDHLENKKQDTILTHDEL
UniProt P22415: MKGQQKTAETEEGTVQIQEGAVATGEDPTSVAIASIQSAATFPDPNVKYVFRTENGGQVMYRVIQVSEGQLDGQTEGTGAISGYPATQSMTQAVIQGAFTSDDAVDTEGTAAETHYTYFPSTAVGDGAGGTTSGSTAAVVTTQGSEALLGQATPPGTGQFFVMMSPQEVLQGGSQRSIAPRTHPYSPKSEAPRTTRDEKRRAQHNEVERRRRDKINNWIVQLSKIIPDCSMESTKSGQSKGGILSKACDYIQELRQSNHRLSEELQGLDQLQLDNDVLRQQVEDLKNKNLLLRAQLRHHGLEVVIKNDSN
UniProt Q6PHR2: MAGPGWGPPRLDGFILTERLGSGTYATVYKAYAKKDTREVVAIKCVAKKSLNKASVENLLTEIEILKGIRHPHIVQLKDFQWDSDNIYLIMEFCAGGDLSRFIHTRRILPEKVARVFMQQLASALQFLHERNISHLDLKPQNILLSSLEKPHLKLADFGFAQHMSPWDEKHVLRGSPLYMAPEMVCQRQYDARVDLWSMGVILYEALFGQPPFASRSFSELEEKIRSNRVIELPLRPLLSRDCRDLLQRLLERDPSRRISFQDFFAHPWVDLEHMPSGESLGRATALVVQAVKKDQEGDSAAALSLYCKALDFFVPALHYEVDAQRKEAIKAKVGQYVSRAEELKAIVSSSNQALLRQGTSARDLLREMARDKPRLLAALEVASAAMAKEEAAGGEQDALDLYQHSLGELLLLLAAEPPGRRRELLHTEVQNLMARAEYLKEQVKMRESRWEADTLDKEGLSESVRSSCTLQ

How the values were obtained:
Assay in all cases: log2 fold change, soluble protein after heating vs DMSO (PISA); higher = thermal stabilisation; K562 lysate, 10 uM; active = over 0.2 and 3.5 SD of the protein, either way, in both replicates (recomputed)
[1] = compound: NCC(=O)Nc1ccc(-n2nc(C(F)(F)F)cc2-c2ccc3c(ccc4ccccc43)c2)cc1
How it was run: (§1)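 Pellets of K562 cells were dounce-homogenised in PBS pH 7.4 with 1 mM MgCl2, and the crude extract was held at 1 mg/mL protein for a 30 min treatment with 10 μM compound. Aliquots were heated for 3 min over 48°C-58°C and pooled before NP-40 was added to 0.5% at 4°C. The supernatant from 21,000xg for 90 min was quantified by TMTpro 16plex LC-MS/MS with channel sums equalised. Values are reported from duplicates as log-two fold change in thermal stability relative to solvent controls.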

vorinostat = compound: O=C(CCCCCCC(=O)Nc1ccccc1)NO [vorinostat]
How it was run: as §1

silmitasertib = compound: O=C(O)c1ccc2c(c1)nc(Nc1cccc(Cl)c1)c1ccncc12 [silmitasertib]
How it was run: as §1

[2] = compound: O=C1NC(=O)C(c2cnc3ccccn23)=C1c1cn2c3c(cc(F)cc13)CN(C(=O)N1CCCCC1)CC2
How it was run: as §1

entospletinib = compound: c1cn2cc(-c3ccc4cn[nH]c4c3)nc(Nc3ccc(N4CCOCC4)cc3)c2n1 [entospletinib]
How it was run: as §1

Measured: log2 fold change

VCP (UniProt P55072)
inactive: [1] 0.016 | vorinostat 0.13 | silmitasertib -0.009 | [2] -0.004 | entospletinib 0.005

VASP (UniProt P50552)
inactive: [1] 0.035 | vorinostat 0.015 | silmitasertib 0.015 | [2] 0.01 | entospletinib -0.013

VAMP4 (UniProt O75379)
inactive: [1] -0.057 | vorinostat 0.171 | silmitasertib -0.039 | [2] -0.008 | entospletinib -0.005

UTP3 (UniProt Q9NQZ2)
active: [1] 0.307
inactive: vorinostat 0.143 | silmitasertib 0.022 | [2] -0.039 | entospletinib 0.02

UNC5B (UniProt Q8IZJ1)
inactive: [1] 0.001 | vorinostat 0.023 | silmitasertib -0.093 | [2] -0.062 | entospletinib 0.052

UPF3B (UniProt Q9BZI7)
inactive: [1] 0.022 | vorinostat 0.075 | silmitasertib -0.02 | [2] -0.043 | entospletinib -0.049

UHRF1BP1L (UniProt A0JNW5)
inactive: [1] 0.049 | vorinostat 0.019 | silmitasertib -0.042 | [2] -0.024 | entospletinib 0

USP13 (UniProt Q92995)
inactive: [1] 0.017 | vorinostat -0.036 | silmitasertib 0.089 | [2] -0.001 | entospletinib 0.051

UQCR10 (UniProt Q9UDW1)
inactive: [1] -0.016 | vorinostat 0.117 | silmitasertib -0.033 | [2] -0.016 | entospletinib 0.009

VARS (UniProt P26640)
active: vorinostat -0.275
inactive: [1] 0.006 | silmitasertib 0.063 | [2] 0.022 | entospletinib 0.024

USP15 (UniProt Q9Y4E8)
inactive: [1] 0.001 | vorinostat -0.033 | silmitasertib 0.021 | [2] -0.033 | entospletinib 0.008

VAV3 isoform 4 (UniProt Q9UKW4)
inactive: [1] 0.128 | vorinostat -0.358 | silmitasertib 0.148 | [2] -0.115 | entospletinib 0.295

USP19 isoform 6 (UniProt O94966)
inactive: [1] 0.033 | vorinostat -0.121 | silmitasertib -0.024 | [2] 0.001 | entospletinib -0.045

UNC13D (UniProt Q70J99)
active: vorinostat -0.211
inactive: [1] 0.022 | silmitasertib 0.002 | [2] -0.006 | entospletinib 0.026

UQCRB (UniProt P14927)
inactive: [1] 0.016 | vorinostat 0.142 | silmitasertib -0.002 | [2] 0.011 | entospletinib 0

UNC93B1 (UniProt Q9H1C4)
inactive: [1] -0.137 | vorinostat 0.114 | silmitasertib 0.143 | [2] 0.082 | entospletinib -0.258

USP47 isoform 4 (UniProt Q96K76)
inactive: [1] 0.003 | vorinostat -0.052 | silmitasertib 0.023 | [2] -0.025 | entospletinib 0.008

UGP2 (UniProt Q16851)
inactive: [1] 0.012 | vorinostat 0.075 | silmitasertib -0.008 | [2] -0.002 | entospletinib 0.009

UGDH (UniProt O60701)
inactive: [1] 0.039 | vorinostat -0.206 | silmitasertib 0.001 | [2] 0.01 | entospletinib -0.01

VAMP7 (UniProt P51809)
inactive: [1] 0 | vorinostat -0.103 | silmitasertib 0.029 | [2] -0.044 | entospletinib 0.01

UTP20 (UniProt O75691)
inactive: [1] -0.213 | vorinostat -0.058 | silmitasertib 0.02 | [2] -0.023 | entospletinib -0.036

UQCRQ (UniProt O14949)
inactive: [1] -0.016 | vorinostat 0.069 | silmitasertib 0.033 | [2] -0.02 | entospletinib 0.009

URGCP (UniProt Q8TCY9)
inactive: [1] 0

UGCG (UniProt Q16739)
inactive: [1] 0.057 | vorinostat 0.114 | silmitasertib -0.013 | [2] -0.056

VAC14 (UniProt Q08AM6)
inactive: [1] -0.02 | silmitasertib 0.041 | [2] 0.005 | entospletinib -0.008
active: vorinostat -0.229

UPF1 (UniProt Q92900)
inactive: [1] 0.008 | vorinostat 0.097 | silmitasertib -0.012 | [2] 0.008 | entospletinib 0.003

USP32 (UniProt Q8NFA0)
inactive: [1] 0.034 | vorinostat -0.043 | silmitasertib -0.027 | [2] 0.016 | entospletinib -0.029

Reprinted from the results shown (three entries):
USP13 (UniProt Q92995)
inactive: [1] 0.017 | vorinostat -0.036 | silmitasertib 0.089 | [2] -0.001 | entospletinib 0.051

UQCR10 (UniProt Q9UDW1)
inactive: [1] -0.016 | vorinostat 0.117 | silmitasertib -0.033 | [2] -0.016 | entospletinib 0.009

VARS (UniProt P26640)
active: vorinostat -0.275
inactive: [1] 0.006 | silmitasertib 0.063 | [2] 0.022 | entospletinib 0.024

Continued.

VAV2 (UniProt P52735)
inactive: [1] -0.027

USF2 (UniProt Q15853)
inactive: [1] -0.019 | vorinostat -0.088 | silmitasertib -0.02 | [2] -0.03 | entospletinib 0.026

VEZT (UniProt F8W8C2)
inactive: [1] 0.063 | vorinostat 0.114 | silmitasertib 0.099 | [2] 0.15 | entospletinib -0.015

VEZF1 (UniProt Q14119)
inactive: [1] -0.029 | vorinostat -0.127 | silmitasertib 0.137 | [2] -0.076 | entospletinib -0.014

USP48 isoform 8 (UniProt Q86UV5)
active: vorinostat -0.474
inactive: [1] 0.014 | silmitasertib 0.009 | [2] -0.022 | entospletinib 0.021

VAPA (UniProt Q9P0L0)
inactive: [1] -0.031 | vorinostat 0.075 | silmitasertib 0.025 | [2] -0.014 | entospletinib 0.033

UFM1 (UniProt P61960)
inactive: [1] -0.247 | vorinostat 0.036 | silmitasertib -0.074 | [2] -0.109 | entospletinib -0.011

UHRF1 isoform 2 (UniProt Q96T88)
inactive: [1] -0.015 | vorinostat -0.211 | silmitasertib 0.024 | [2] 0.068 | entospletinib -0.054

UIMC1 (UniProt Q96RL1)
inactive: [1] 0.044 | vorinostat -0.048 | silmitasertib -0.005 | [2] 0.004 | entospletinib -0.009

UNC13B isoform 2 (UniProt O14795)
inactive: [1] -0.058 | vorinostat 0.214 | silmitasertib 0.108 | [2] 0.012 | entospletinib -0.066

UFSP2 (UniProt Q9NUQ7)
inactive: [1] -0.029 | silmitasertib 0.001 | [2] -0.021 | entospletinib -0.012
active: vorinostat 0.342

USP12 (UniProt O75317)
inactive: [1] -0.053 | vorinostat -0.121 | silmitasertib 0.043 | [2] -0.068 | entospletinib -0.026

UGGT2 (UniProt Q9NYU1)
inactive: [1] -0.037 | vorinostat 0.091 | silmitasertib -0.01 | [2] -0.002 | entospletinib -0.035

USF1 (UniProt P22415)
inactive: [1] 0.08 | vorinostat -0.303 | silmitasertib 0.09 | [2] -0.042 | entospletinib 0.034

VAMP8 (UniProt Q9BV40)
inactive: [1] -0.02 | vorinostat 0.09 | silmitasertib -0.034 | [2] -0.032 | entospletinib -0.077

VIPAS39 (UniProt Q9H9C1)
inactive: [1] -0.008 | vorinostat -0.137 | silmitasertib 0.077 | [2] 0.013 | entospletinib -0.056

UQCRH (UniProt P07919)
inactive: [1] 0.006 | vorinostat -0.05 | silmitasertib 0.015 | [2] 0.01 | entospletinib -0.024

ULK3 isoform 4 (UniProt Q6PHR2)
inactive: [1] -0.102 | vorinostat -0.05 | silmitasertib 0.242 | [2] 0.046 | entospletinib 0.273

UCKL1 (UniProt Q9NWZ5)
inactive: [1] -0.024 | vorinostat -0.193 | silmitasertib -0.007 | [2] 0.023 | entospletinib 0.018

VDAC2 (UniProt Q5JSD1)
inactive: [1] 0.025 | vorinostat -0.182 | silmitasertib -0.076 | [2] 0.02 | entospletinib -0.041

ULK1 (UniProt O75385)
inactive: [1] 0.059 | vorinostat -0.141 | silmitasertib -0.024 | [2] -0.004 | entospletinib -0.031

VAPB (UniProt O95292)
inactive: [1] 0.057 | vorinostat 0.039 | silmitasertib -0.025 | [2] -0.038 | entospletinib 0.033

UROS (UniProt P10746)
inactive: [1] -0.011 | vorinostat -0.118 | silmitasertib 0.045 | [2] 0.031 | entospletinib -0.038

VAMP3 (UniProt Q15836)
inactive: [1] -0.026 | vorinostat 0.136 | silmitasertib -0.043 | [2] 0.206 | entospletinib -0.069

UPF2 (UniProt Q9HAU5)
inactive: [1] 0.008 | vorinostat -0.079 | silmitasertib -0.023 | [2] -0.014 | entospletinib -0.013

UFD1 isoform 1 (UniProt Q92890)
inactive: [1] -0.004 | vorinostat 0.042 | silmitasertib -0.001 | [2] -0.013 | entospletinib -0.016

UVRAG (UniProt Q9P2Y5)
inactive: [1] -0.036 | vorinostat -0.106 | silmitasertib 0.058 | [2] -0.002 | entospletinib 0.031
